Results are given in words; binding and its absence hold for the method and conditions named. In cells and extracts the contact can be indirect. Binding can be weak; no strength is given.

Amino acid sequences for entries named in this document (tags omitted). A change or cut given only in a name is not applied to a line headed by its entry.
UniProt P10637: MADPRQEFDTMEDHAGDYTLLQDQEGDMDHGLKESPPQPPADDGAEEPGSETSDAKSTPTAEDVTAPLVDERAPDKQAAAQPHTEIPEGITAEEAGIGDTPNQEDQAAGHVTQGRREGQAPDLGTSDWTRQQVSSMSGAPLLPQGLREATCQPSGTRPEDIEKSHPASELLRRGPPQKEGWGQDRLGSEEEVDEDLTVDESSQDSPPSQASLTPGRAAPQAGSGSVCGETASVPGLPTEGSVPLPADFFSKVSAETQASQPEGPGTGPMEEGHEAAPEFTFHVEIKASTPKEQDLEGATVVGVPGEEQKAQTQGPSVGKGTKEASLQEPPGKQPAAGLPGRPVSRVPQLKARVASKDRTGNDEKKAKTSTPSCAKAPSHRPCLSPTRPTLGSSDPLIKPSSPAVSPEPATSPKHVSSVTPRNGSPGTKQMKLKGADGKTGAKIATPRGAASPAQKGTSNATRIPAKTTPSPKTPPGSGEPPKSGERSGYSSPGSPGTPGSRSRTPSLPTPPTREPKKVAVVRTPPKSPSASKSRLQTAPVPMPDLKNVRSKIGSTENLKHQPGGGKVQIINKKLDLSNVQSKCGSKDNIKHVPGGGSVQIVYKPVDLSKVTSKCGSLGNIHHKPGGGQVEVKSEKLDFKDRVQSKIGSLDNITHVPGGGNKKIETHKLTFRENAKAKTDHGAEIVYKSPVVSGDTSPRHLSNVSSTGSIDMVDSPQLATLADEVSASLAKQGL
UniProt Q6PCN3: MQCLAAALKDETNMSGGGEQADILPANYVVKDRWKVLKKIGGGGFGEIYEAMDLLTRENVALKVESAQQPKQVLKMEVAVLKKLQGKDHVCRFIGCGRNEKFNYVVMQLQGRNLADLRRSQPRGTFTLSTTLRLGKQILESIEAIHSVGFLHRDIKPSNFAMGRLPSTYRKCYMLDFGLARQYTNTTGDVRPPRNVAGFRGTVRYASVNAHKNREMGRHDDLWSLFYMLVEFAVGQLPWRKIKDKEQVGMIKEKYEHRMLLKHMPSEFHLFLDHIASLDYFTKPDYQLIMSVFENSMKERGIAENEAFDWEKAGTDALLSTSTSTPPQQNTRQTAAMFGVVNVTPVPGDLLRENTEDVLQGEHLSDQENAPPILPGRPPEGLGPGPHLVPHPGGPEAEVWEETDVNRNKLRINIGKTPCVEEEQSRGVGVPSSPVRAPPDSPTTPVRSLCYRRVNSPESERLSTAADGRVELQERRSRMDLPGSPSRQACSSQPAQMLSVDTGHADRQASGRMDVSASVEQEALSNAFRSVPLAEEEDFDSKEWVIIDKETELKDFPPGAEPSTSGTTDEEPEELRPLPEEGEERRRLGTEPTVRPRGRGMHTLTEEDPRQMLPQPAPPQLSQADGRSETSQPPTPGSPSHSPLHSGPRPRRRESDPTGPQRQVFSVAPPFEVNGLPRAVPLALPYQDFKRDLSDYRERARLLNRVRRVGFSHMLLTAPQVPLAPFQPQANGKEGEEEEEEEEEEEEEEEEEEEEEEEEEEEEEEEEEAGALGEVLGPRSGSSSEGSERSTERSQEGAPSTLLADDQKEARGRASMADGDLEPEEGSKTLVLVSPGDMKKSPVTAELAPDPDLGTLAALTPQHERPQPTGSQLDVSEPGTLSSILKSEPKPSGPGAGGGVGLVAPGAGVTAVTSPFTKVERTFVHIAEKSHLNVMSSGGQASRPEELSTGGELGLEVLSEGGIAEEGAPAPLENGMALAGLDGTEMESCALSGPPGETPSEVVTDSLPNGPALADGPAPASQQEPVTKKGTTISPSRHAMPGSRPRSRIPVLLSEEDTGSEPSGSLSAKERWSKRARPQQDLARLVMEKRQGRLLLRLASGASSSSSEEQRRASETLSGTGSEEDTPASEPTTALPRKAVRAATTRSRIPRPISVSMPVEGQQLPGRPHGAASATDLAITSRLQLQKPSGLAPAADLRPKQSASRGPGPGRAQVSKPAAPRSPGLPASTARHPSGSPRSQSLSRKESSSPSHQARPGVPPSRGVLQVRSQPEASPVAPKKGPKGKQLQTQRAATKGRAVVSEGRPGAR

The assay has as its target Tau (mouse (endogenous in Raw264.7)) (UniProt P10637). As to the kind of experiment: co-IP; endogenous proteins; Raw264.7 cells treated with 10 µM dexamethasone for 30 min, lysed in PBS pH 7.4 with 1.5% Triton X-100; anti-Tau antibody (or mouse IgG) on protein A/G agarose (for TTBK1) or crosslinked to magnetic beads (for p105/p50), overnight at 4 °C; immunoblot. A general note: In western blotting, separated proteins are transferred to a membrane and probed.

Regarding “TTBK1 kinase (from UniProt Q6PCN3 1-1308) (enzyme)”, the binding result is listed as “binds”.

The values are drawn from publication PMC11701132, “Tau is a receptor with low affinity for glucocorticoids and is required for glucocorticoid-induced bone loss” (Cell Research, 2025).
